For test [1], the target named is E3 ubiquitin ligase SPOP (human (endogenous in MCF-7)) (UniProt O43791). Nature of the test: co-IP; lysates of 1 × 10^7 MCF-7 cells, 5 µg of SPOP or Twist1 antibody overnight at 4 °C, Protein A/G magnetic beads 4 h at 4 °C, western blotting; endogenous proteins; also in cells transfected with the circLRBA overexpression plasmid (fewer Twist1 precipitated by anti-SPOP than in control cells). (In general: A western blot detects proteins with antibodies after separation by electrophoresis.)

Amino acid sequences for entries named in this document (tags omitted). A change or cut given only in a name is not applied to a line headed by its entry. Chains listed by the source or under a name are the forms on record and can include a tag or linker. Residues count along the entry.
UniProt O43791: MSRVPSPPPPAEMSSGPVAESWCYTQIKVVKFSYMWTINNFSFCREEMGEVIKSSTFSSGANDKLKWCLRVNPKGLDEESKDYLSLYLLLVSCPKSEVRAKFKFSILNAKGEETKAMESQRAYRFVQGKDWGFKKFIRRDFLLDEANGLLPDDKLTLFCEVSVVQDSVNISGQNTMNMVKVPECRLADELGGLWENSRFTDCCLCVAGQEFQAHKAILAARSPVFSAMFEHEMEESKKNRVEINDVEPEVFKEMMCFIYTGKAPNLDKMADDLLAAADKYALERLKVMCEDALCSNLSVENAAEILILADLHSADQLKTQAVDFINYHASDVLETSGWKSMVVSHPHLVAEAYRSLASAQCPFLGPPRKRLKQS
Flag-tagged N-terminal SPOP with a MATH domain (aa 1-170): residues 1-170 of O43791
Flag-tagged C-terminal SPOP with a BTB domain (aa 171-374): residues 171-374 of O43791
UniProt Q15672: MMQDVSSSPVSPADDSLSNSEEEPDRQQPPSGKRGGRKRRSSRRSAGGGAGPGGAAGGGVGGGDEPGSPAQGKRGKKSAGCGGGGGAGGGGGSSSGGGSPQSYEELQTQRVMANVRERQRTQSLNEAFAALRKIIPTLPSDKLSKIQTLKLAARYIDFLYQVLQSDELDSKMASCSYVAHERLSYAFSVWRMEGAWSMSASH

Test [2] addresses Flag-tagged N-terminal SPOP with a MATH domain (aa 1-170) (UniProt O43791). Nature of the test: co-IP; anti-Flag co-IP from MCF-7 cells transfected with Flag-tagged full-length, N-terminal (aa 1-170) or C-terminal (aa 171-374) SPOP; Twist1 detected by western blotting.
Test [3] concerns the target Flag-tagged C-terminal SPOP with a BTB domain (aa 171-374) (UniProt O43791). The description is as above.

These are yes or no findings as the source states them, for the method shown. In cells and extracts the contact can be indirect. Some entries that bind do so weakly or less than the wild type.

Twist1 (from UniProt Q15672 1-202): the binding result in test [1] was “binds”; in test [2], “binds”; in test [3], “no binding”.

The values are drawn from article PMC12752550.
